Reference: PMC5940738
Results are given in words; binding and its absence hold for the method and conditions named. In cells and extracts the contact can be indirect. Some results given as binding are weak or reduced against the parent protein; the word gives no strength. Sequences can lack the tags named with a protein.

Sequences of proteins named here, by UniProt entry; tags and fusion partners are left off. A change or cut given only in a name is not applied to a line headed by its entry. Residues count along the entry.
UniProt Q28021: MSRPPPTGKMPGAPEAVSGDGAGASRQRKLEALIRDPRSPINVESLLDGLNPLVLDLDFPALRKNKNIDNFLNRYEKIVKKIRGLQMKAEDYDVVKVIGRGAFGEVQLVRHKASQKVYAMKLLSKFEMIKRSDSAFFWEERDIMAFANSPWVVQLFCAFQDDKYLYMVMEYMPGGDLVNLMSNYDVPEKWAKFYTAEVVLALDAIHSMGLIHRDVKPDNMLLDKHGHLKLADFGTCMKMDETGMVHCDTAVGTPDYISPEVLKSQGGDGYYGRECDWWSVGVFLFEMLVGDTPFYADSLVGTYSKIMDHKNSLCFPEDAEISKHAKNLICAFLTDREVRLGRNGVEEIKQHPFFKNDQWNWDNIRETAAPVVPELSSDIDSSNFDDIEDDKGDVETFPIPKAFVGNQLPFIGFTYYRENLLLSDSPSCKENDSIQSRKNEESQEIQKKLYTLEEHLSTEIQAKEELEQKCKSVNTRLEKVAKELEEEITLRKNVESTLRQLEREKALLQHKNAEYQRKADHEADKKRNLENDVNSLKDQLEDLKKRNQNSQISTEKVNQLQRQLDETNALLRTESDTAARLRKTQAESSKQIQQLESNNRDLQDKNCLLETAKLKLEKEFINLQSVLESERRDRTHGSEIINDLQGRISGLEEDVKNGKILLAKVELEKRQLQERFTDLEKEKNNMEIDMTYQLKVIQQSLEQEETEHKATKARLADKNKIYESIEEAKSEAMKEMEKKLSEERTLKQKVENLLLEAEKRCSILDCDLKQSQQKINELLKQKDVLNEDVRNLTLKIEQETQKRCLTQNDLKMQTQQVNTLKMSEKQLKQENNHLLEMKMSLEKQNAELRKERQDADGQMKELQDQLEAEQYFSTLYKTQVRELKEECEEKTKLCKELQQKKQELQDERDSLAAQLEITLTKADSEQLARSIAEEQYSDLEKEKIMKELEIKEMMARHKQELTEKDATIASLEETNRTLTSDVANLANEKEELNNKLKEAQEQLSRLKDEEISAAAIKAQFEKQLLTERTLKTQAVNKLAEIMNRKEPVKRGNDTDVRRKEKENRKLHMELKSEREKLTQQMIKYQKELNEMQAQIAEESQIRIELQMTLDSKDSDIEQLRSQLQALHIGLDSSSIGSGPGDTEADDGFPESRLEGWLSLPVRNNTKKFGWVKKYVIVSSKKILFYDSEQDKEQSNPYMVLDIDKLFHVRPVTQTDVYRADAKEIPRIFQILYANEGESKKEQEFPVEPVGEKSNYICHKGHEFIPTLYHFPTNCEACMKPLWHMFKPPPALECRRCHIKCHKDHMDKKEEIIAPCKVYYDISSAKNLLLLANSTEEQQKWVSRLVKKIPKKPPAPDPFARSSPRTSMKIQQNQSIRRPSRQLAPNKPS
UniProt Q3UFB7, residues 34-799: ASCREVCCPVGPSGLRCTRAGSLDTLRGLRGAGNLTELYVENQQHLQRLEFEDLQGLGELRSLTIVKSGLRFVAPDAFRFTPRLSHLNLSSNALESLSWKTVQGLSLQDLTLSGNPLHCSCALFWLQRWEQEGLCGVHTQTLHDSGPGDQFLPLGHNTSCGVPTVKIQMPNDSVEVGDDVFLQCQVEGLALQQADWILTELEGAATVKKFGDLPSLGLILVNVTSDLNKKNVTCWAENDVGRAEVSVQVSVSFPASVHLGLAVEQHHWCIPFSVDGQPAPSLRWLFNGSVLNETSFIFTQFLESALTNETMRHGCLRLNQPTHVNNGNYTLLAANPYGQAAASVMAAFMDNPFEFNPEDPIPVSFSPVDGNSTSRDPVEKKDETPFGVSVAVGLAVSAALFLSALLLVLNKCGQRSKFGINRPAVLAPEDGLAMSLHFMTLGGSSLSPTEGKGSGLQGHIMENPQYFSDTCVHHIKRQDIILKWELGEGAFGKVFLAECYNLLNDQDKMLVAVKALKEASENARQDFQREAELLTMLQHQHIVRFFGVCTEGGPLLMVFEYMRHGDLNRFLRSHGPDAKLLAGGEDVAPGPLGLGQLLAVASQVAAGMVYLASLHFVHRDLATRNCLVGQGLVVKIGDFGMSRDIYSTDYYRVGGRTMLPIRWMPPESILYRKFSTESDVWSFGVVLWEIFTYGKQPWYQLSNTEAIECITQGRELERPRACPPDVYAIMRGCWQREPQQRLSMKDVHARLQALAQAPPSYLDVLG

T1: Linx-V5 (mouse) (UniProt Q5RKR3)
T1 sequence: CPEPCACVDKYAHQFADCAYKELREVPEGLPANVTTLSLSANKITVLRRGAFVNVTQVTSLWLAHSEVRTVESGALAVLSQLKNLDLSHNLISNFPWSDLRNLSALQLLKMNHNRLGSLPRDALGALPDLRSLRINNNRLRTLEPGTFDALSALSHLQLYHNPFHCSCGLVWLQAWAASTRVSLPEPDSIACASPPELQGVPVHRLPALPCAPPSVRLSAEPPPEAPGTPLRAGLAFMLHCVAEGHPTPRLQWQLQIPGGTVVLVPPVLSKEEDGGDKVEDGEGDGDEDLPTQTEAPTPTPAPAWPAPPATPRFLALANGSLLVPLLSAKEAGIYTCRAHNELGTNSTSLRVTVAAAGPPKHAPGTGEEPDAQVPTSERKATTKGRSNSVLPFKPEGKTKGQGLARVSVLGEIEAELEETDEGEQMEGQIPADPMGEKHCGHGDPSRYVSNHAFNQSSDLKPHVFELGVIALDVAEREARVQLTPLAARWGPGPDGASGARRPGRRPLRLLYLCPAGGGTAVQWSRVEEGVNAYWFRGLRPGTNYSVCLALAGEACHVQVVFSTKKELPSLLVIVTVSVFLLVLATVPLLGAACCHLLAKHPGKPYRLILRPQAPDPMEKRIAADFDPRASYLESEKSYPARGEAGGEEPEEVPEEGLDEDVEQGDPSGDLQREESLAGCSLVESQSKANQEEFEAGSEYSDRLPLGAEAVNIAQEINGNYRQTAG


Columns and labels:
Linx-V5 (mouse) = molecular target: T1, Linx-V5 (mouse); experiment: co-IP; lysates of N1E-115 cells transfected with control or Linx-V5 vector immunoprecipitated with V5 antibody, Western blot
GFP-Rho-kinase = GFP-Rho-kinase (UniProt Q28021); experiment: co-IP; 293FT cells transfected with Linx-SF and either GFP or GFP-Rho-kinase, IP with GFP antibody, Western blot

binding (Linx-V5 (mouse)) | binding (GFP-Rho-kinase) | Molecule
binds |  | TrkA in N1E-115 cells (from UniProt Q3UFB7 34-799) (receptor)
 | binds | Linx-SF (mouse Linx fused with a streptavidin-Flag tag) (protein, UniProt Q5RKR3 20-745) CPEPCACVDKYAHQFADCAYKELREVPEGLPANVTTLSLSANKITVLRRGAFVNVTQVTSLWLAHSEVRTVESGALAVLSQLKNLDLSHNLISNFPWSDLRNLSALQLLKMNHNRLGSLPRDALGALPDLRSLRINNNRLRTLEPGTFDALSALSHLQLYHNPFHCSCGLVWLQAWAASTRVSLPEPDSIACASPPELQGVPVHRLPALPCAPPSVRLSAEPPPEAPGTPLRAGLAFMLHCVAEGHPTPRLQWQLQIPGGTVVLVPPVLSKEEDGGDKVEDGEGDGDEDLPTQTEAPTPTPAPAWPAPPATPRFLALANGSLLVPLLSAKEAGIYTCRAHNELGTNSTSLRVTVAAAGPPKHAPGTGEEPDAQVPTSERKATTKGRSNSVLPFKPEGKTKGQGLARVSVLGEIEAELEETDEGEQMEGQIPADPMGEKHCGHGDPSRYVSNHAFNQSSDLKPHVFELGVIALDVAEREARVQLTPLAARWGPGPDGASGARRPGRRPLRLLYLCPAGGGTAVQWSRVEEGVNAYWFRGLRPGTNYSVCLALAGEACHVQVVFSTKKELPSLLVIVTVSVFLLVLATVPLLGAACCHLLAKHPGKPYRLILRPQAPDPMEKRIAADFDPRASYLESEKSYPARGEAGGEEPEEVPEEGLDEDVEQGDPSGDLQREESLAGCSLVESQSKANQEEFEAGSEYSDRLPLGAEAVNIAQEINGNYRQTAG
